# Measured values taken from patent US8012929B2, “Peptides directed for diagnosis and treatment of amyloid-associated diseases” (Tel Aviv University Future Technology Development L.P., priority 2002, dated 2011).
# Chains of the proteins cited; added tags and fusions are not shown. Residues count along the entry.
# UniProt P05067, 672-711: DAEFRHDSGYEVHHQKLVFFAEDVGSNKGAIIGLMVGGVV
# UniProt P05067, 672-713: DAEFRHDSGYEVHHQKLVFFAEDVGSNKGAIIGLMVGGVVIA
# “Also recorded” adds a separate entry of the source. Part of at least one peptide drawing is inferred or uncertain, most often the ends. Square brackets hold non-standard residues; d marks the D form. Peptide text beside a SMILES is read from it. Aib = CC(C)(N)C(=O)O
# Tests used:
# Aβ 1-40 = molecular target: T1, Aβ 1-40 (Homo sapiens, UniProt P05067); assay: Thioflavin T fluorescence assay of Aβ 1-40 fibrillization; format: biochemical; conditions: 5 μM Aβ 1-40, 10 μM D-Trp-Aib
# T1 construct: Recombinant β-amyloid (Aβ 1-40, >98% pure) was purchase from rPeptide; purchased rPeptide (Athens Ga., USA)
# [1] = molecular target: T2, β-amyloid1-42 intermediates (Homo sapiens, UniProt P05067); assay: Interaction with early β-amyloid1-42 intermediates (gel shift, 6E10 immunoblot); format: binding; conditions: 0.4 mM β-amyloid monomers, 1:2, 1:10, 1:20 molar ratio, 37° C., 6 hours
# T2 construct: β-amyloid monomers (0.4 mM) were produced by dissolving the 1-42 peptide in 1,1,1,3,3,3-hexafluoroisopropanol; purchased Bachem (Bubendorf Switzerland)
# [2] = molecular target: T3, β-amyloid1-42 globulomers (Homo sapiens, UniProt P05067); assay: β-amyloid1-42 globulomer formation (6E10 immunoblot, densitometry); format: biochemical; conditions: 0.13 mM β-amyloid, 1:5, 1:10, 1:20 molar ratio
# T3 construct: β-amyloid monomers (0.4 mM) were produced by dissolving the 1-42 peptide in 1,1,1,3,3,3-hexafluoroisopropanol; purchased Bachem (Bubendorf Switzerland)
# Source text: […] Solutions were then separated using a 15% Tris-Tricine gel, and transferred to a PVDF membrane, which was screened with a mouse anti β-amyloid monoclonal antibody (6E10; Signet, Dedham, Mass.)
compound,measurement,setting,value
CC(C)(NC(=O)[C@H](N)Cc1c[nH]c2ccccc12)C(=O)O [D-Trp-Aib] (H-[dW]-[Aib]-OH),lag time of Aβ fibrilization,Aβ 1-40,significantly increased
same,overall ThT fluorescence upon reaching a plateau,Aβ 1-40,significantly lower than that observed without the inhibitor
same,complex formation with β-amyloid1-42 intermediates (band shift),[1],formation of a physical complex; also recorded: presence of a D-Trp-Aib-amyloid complex
same,inhibition of globulomer formation,[2],dose dependent inhibition of globulomer formation
